Assay results taken from publication PMC9204419, “A Toolbox for the Generation of Chemical Probes for Baculovirus IAP Repeat Containing Proteins” (Frontiers in Cell and Developmental Biology, 2022).
The source holds more than one record for some entries. This is not the full list of results. There may be further records. Values given together differ for a reason that is not stated; some may be repeats, others may stem from another dose, organism or construct than stated.

Protein sequences, listed by entry. Tags and fused reporters are not part of them. Residues count along the entry.
UniProt Q13490, 260-352 limits assumed: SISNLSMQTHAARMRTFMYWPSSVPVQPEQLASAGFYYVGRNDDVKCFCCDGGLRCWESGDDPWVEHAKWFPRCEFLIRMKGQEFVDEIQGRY

Molecular target: BIRC2-BIR3 domain (Homo sapiens, UniProt Q13490)
Experiment: Differential scanning fluorimetry (DSF)
Conditions: difference in melting temperature to DMSO control; 20 μM protein, 40 μM inhibitor; mean ± SD, n = 3

Q: Which “DSF Assay ΔTm” value does the source give for `CN[C@@H](C)C(=O)N[C@H](C(=O)N1CCC[C@H]1C(=O)N[C@H](C(=O)NCCCCCCNC(=O)[C@@H](NC(=O)[C@@H]1CCCN1C(=O)[C@@H](NC(=O)[C@H](C)NC)C1CCCCC1)C(c1ccccc1)c1ccccc1)C(c1ccccc1)c1ccccc1)C1CCCCC1` [BV-6] here?
A: less than 10 °C and 9.1 ± 0.0 °C
